Measurements reported in patent US9888688B2, “Tetrazolinone compounds and applications thereof” (Sumitomo Chemical Company, Limited, priority 2013, dated 2018).
Some of these results come from one statement about several compounds together. For at least one compound, name, drawing or mass did not settle the structure.

Experiments:
Assay type in all cases: in vivo
[1] = tested on: cucumber corynespora leaf spot fungus (Corynespora cassicola); test: Cucumber corynespora leaf spot control test (Test Examples 26, 27); conditions: 200 ppm foliar spray, cucumber SAGAMI HANJIRO, inoculated after one day, 7 days
[2] = tested on: cucumber anthracnose fungus (Colletotrichum lagenarium); test: Cucumber anthracnose control test (Test Examples 28, 29); conditions: 200 ppm foliar spray, cucumber SAGAMI HANJIRO, inoculated after one day
[3] = tested on: kidney bean stem rot fungus (Sclerotinia sclerotiorum); test: Kidney bean stem rot control test, foliar spray on kidney bean (Test Examples 5, 22, 23); conditions: kidney bean NAGAUZURA NATANE, four days after inoculation
[4] = tested on: wheat leaf blotch fungus (Septoria tritici); test: Wheat leaf blotch control test, spray before inoculation (Test Examples 6, 9, 10, Comparative Test Example); conditions: 200 ppm foliar spray, wheat APOGEE, inoculated after 4 days
[5] = tested on: barley scald fungus (Rhynchosporium secalis); test: Barley scald control test, foliar spray on barley (Test Examples 20, 21); conditions: 200 ppm foliar spray, barley NISHINOHOSHI, inoculated after 2 days
[6] = tested on: cotton aphid (Aphis gossypii); test: Cotton aphid control test on cucumber (Test Example 32); conditions: 500 ppm, 20 mL sprayed on cucumber, after 6 days
Experimental: In the present Test Example, a water dilution containing a surfactant prepared by adjusting so as to contain a predetermined concentration (500 ppm) of the present compound was used as a test chemical solution. Thirty (30) heads of cotton aphid (Aphis gossypii) (including adults and larvae) were released on the leaves of cucumber grown in a polyethylene cup until the first true leaf was developed. Next day, 20 mL of the above test chemical solution was sprayed. After 6 days, the number of the surviving insects was counted and the control value was calculated by the following equation. Control value (%)={1−(Cb×Tai)/(Cai×Tb)}×100 wherein symbols in the equation represent the followings: Cb: Number of insects before spraying chemical solution in untreated area; Cai: Number of surviving insects in untreated area; Tb: Number of insects before spraying chemical solution in treated area; and Tai: Number of surviving insects in treated area.

[7] = tested on: soybean rust fungus (Phakopsora pachyrhizi); test: Soybean rust control test, foliar spray on soybean (Test Example 19); conditions: 200 ppm foliar spray, soybean KUROSENGOKU, inoculated after 2 days

Cc1cc(-c2cccnc2)c(C)cc1OCc1c(C)cccc1-n1nnn(C)c1=O [Present Compound 157]
area of lesion spots relative to that on an untreated plant [1]: ≤ 30%
area of lesion spots relative to that on an untreated plant [2]: ≤ 30%
area of lesion spots relative to that on an untreated plant ([3]; 200 ppm foliar spray): ≤ 30%
area of lesion spots relative to that on an untreated plant ([3]; 500 ppm foliar spray): ≤ 30%
area of lesion spots relative to that on an untreated plant [4]: ≤ 30%
area of lesion spots relative to that on an untreated plant [5]: ≤ 30%
Control value [6]: ≥ 90%
area of lesion spots relative to that on an untreated plant [7]: ≤ 30%
